PubChem BioAssay AID504808, Drosophila RNAi Screening Center – 2011

Purpose: 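Chromatin factors that keep E2F targets switched off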 (primary screen)
Cells: Drosophila S2 cells
Reagent: long dsRNA against Drosophila genes
Read-out: 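Dual luciferase plate measurements; E2F-specific signal taken as firefly over Renilla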
Direction: E2F firefly: higher = more E2F reporter activity; Renilla normaliser: higher = more normaliser reporter signal
Hit rule: 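Called active if the normalised E2F reporter went up by over 50%; the cutoff is arbitrary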
In all, the deposit lists about 21,000 reagents; this is an unselected part of those that have a named target and a result. Of all reagents, 18 (0.084%) are marked active. 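Raw counts without plate normalisation, one of two replicates; the ratio scores behind the calls were not deposited.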 The record does not give: the amount of reagent, the time to read-out.

For spas [DRSC15929], what was measured?
E2F firefly, rep 1: 80677; Renilla normaliser, rep 1: 5737; Call: inactive

How did the screen score hts [DRSC07629]?
E2F firefly, rep 1: 1.22e5; Renilla normaliser, rep 1: 4947; Call: inactive

How did the screen score CG5050 [DRSC02807]?
E2F firefly, rep 1: 1.11e5; Renilla normaliser, rep 1: 5071; Call: inactive

What did the screen give for CG32633 [DRSC18987]?
E2F firefly, rep 1: 84875; Renilla normaliser, rep 1: 2608; Call: inactive

What did the screen give for CG4854 [DRSC15663]?
E2F firefly, rep 1: 1.50e5; Renilla normaliser, rep 1: 9267; Call: inactive

Which result is listed for Hexo1 [DRSC08663]?
E2F firefly, rep 1: 87372; Renilla normaliser, rep 1: 3458; Call: inactive

For Not10 [DRSC14129], what does the deposit list?
E2F firefly, rep 1: 67520; Renilla normaliser, rep 1: 3689; Call: inactive

For VhaM9.7-b [DRSC11841], how do the results read?
E2F firefly, rep 1: 1.35e5; Renilla normaliser, rep 1: 7059; Call: inactive

With PIG-S [DRSC14643], what was measured?
E2F firefly, rep 1: 78604; Renilla normaliser, rep 1: 3712; Call: inactive

With PIG-S [DRSC15388], what was measured?
E2F firefly, rep 1: 1.13e5; Renilla normaliser, rep 1: 5975; Call: inactive

With PIG-S [DRSC15952], what was measured?
E2F firefly, rep 1: 73532; Renilla normaliser, rep 1: 4020; Call: inactive

For CG31848 [DRSC01309], what was measured?
E2F firefly, rep 1: 97531; Renilla normaliser, rep 1: 6240; Call: inactive

2 entries from above, reformatted.
spas [DRSC15929]
- E2F firefly, rep 1: 80677
- Renilla normaliser, rep 1: 5737
- Call: inactive

hts [DRSC07629]
- E2F firefly, rep 1: 1.22e5
- Renilla normaliser, rep 1: 4947
- Call: inactive
